The list shows a part of the results.

Amino acid sequences for entries named in this document (tags omitted).
UniProt Q0JBA9, entry or part of it: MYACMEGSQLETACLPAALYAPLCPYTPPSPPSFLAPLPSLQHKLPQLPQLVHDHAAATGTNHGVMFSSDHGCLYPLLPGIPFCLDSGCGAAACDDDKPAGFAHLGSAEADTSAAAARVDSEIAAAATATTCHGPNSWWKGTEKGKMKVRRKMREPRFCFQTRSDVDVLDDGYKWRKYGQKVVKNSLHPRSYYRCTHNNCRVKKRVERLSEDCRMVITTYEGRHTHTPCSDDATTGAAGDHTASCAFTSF

For this experiment, the target named is OsWRKY34 (Oryza sativa, UniProt Q0JBA9 1-250). In words: protein-binding microarray (RPBM); PBS, 2% BSA, 51.3 ng/ul salmon testes DNA, 50 uM zinc acetate, 200 nM TF, 25 C, 1 h; high values mean tight binding. The conditions noted are these: protein: recombinant; tags: N-terminal polyhistidine and DsRed monomer fusion (pET32a); label: CyDye5-dUTP incorporated in the synthesized complementary strand; 3' TTTTT single-stranded linker to array surface; dsDNA, one strand shown. The essentials:
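Binding signal is defined as the fluorescence intensity of each feature in arbitrary units, read on an Axon 4000B scanner. Transcription factors with N-terminal polyhistidine and DsRed fusions came from E. coli BL21-CodonPlus and were purified on Ni–NTA. They were incubated at 200 nM for 1 h at 25 °C on a custom Agilent array that had been made double-stranded with Cy5-dUTP, with 50 µM zinc acetate present, and the array was washed.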
For “GTGGGTTCTTTTTCTCTCTCTTTTCACTCCTTTTCCTACACGGAGTCACCTAGTGCAG”, the binding signal is 11200 fluorescence intensity (a.u.). For the sequence “GTTGGAGTTGTTTTTTTTTTTTTTTGACTAAAATCCCTCACGGAGTCACCTAGTGCAG”, the binding signal is 9620 fluorescence intensity (a.u.). The same measure for “CTCGGCCTGGTACCCATCCCCGCCCGCGCCATCTTGCGCCCGGAGTCACCTAGTGCAG”: 8910 fluorescence intensity (a.u.). The same measure for “TGCCATGGGGAGCTTTCATGTTTTTTTCTCCCTCTCTGAACGGAGTCACCTAGTGCAG”: 8480 fluorescence intensity (a.u.).

Consider “TAAATCCTACGTGGATCATCTACCGCCCATTATTGTACCTCGGAGTCACCTAGTGCAG”, for which the binding signal was 8110 fluorescence intensity (a.u.). On to “ATTCCGTTAGCATTTGTCCTGCCATGGCCTATTCTGCCAGCGGAGTCACCTAGTGCAG”, for which the binding signal was 10400 fluorescence intensity (a.u.). Take “GCTCCAATTTCACGCTGCTCTCGGCCGTCGGATCGCGCGCCGGAGTCACCTAGTGCAG”: the binding signal was 8850 fluorescence intensity (a.u.). The same measure for “AGTAACCTACGAAGCCTGACCTGAGACACCGGTTTGACCGCGGAGTCACCTAGTGCAG”: 9320 fluorescence intensity (a.u.). For “CACGGTATAAAAGTAAAACCCGCATGTGCCTTGTAGTTCTCGGAGTCACCTAGTGCAG”, the binding signal is 8060 fluorescence intensity (a.u.).

Take “TGGTTTTTCATTTTGTGTGCGTGTGCACGTTTGTGTGGGGCGGAGTCACCTAGTGCAG”: the binding signal was 12700 fluorescence intensity (a.u.). Take “GTGTGTGAATGACTAACGAGTCCCGCGTACATGTTTTTAACGGAGTCACCTAGTGCAG”: the binding signal is 9240 fluorescence intensity (a.u.). In the case of “ACCGCCTATAAAACCACCACGTCGGACGTCGCCACCTCCGCGGAGTCACCTAGTGCAG” it was 8840 fluorescence intensity (a.u.).

With “TAGGAGGTGGCGGCCGGTGGTGGCGGATCCGGCGGCGGGGCGGAGTCACCTAGTGCAG”, the binding signal is 8840 fluorescence intensity (a.u.).

Take “TGCACGTCAGATCATATGCCTGCCCTCTACTAGTAAGTTTCGGAGTCACCTAGTGCAG”: the binding signal is 10000 fluorescence intensity (a.u.). In the case of “CGTCCGTCTCCACCCCTTCGCCGGCCGCCGCCCTATTCCCCGGAGTCACCTAGTGCAG” it was 9130 fluorescence intensity (a.u.); in that of “TGTATGGTTACTCAGGATTTGAACTTCCAGATTGGGTGGGCGGAGTCACCTAGTGCAG”, 8180 fluorescence intensity (a.u.); in that of “GGTTTAAGGGTGGAAGGGCATATGCGTAACTTCGCATATCCGGAGTCACCTAGTGCAG”, 8110 fluorescence intensity (a.u.). Turning to “GGATGTAAATCTTTTTGGAGTGTGGGTCTTATCTTAATATCGGAGTCACCTAGTGCAG”, the binding signal was 9240 fluorescence intensity (a.u.). “TGGGCTGGGTTAGGGACTCATCTGCAATTTCGAGGATTCGCGGAGTCACCTAGTGCAG”: the binding signal was 9060 fluorescence intensity (a.u.). The same measure for “ACACATCTCACATCGCCATTTGGCCATTTCCTCTCCAATGCGGAGTCACCTAGTGCAG”: 10100 fluorescence intensity (a.u.).

Turning to “AGCTATTTTACATGTTATTTTTTCATTGTTATCGTACTAACGGAGTCACCTAGTGCAG”, the binding signal was 10500 fluorescence intensity (a.u.).

For “CCATCTTAATGCGCCCGGCAACAATGTAGTATTTTTTTTTCGGAGTCACCTAGTGCAG”, the binding signal was 9990 fluorescence intensity (a.u.). In the case of “CGCGGACAACACTACACTGCATGCCCATTTATTACTCACACGGAGTCACCTAGTGCAG” it was 10800 fluorescence intensity (a.u.). In the case of “AGGGTCTATTTTTGTAATTTTTTTGGCTGATAGATTATTTCGGAGTCACCTAGTGCAG” it was 10900 fluorescence intensity (a.u.); in that of “CCCAAATCCTCCAGATCGTCTTCGTCTTCCACCTCGAGCTCGGAGTCACCTAGTGCAG”, 9720 fluorescence intensity (a.u.). “CATTATTCATCCACCTTTCGTGTACCACACTTCATATATCCGGAGTCACCTAGTGCAG”: the binding signal is 12000 fluorescence intensity (a.u.). Consider “TCCTTCGTCTGTGGCGGCTGGTCAGTACTTGCTTGCATCTCGGAGTCACCTAGTGCAG”, for which the binding signal is 11300 fluorescence intensity (a.u.).

As for “AATTGTTGACCATTGAGACTTGAGAATTGGGTTTATCAGTCGGAGTCACCTAGTGCAG”, the binding signal was 8650 fluorescence intensity (a.u.). In the case of “CCGCATTTACCTCTCACATGTGTCTCGCCACTCGGTCTGACGGAGTCACCTAGTGCAG” it was 12000 fluorescence intensity (a.u.). The same measure for “CCTTCTCGCCGCCGGCTTCTTCTTCTTCTTCCTTGTGTAGCGGAGTCACCTAGTGCAG”: 10000 fluorescence intensity (a.u.); for “TCTCCCGCCGCCCGCCGGCCGCGCGCCTCCTCTCCCGCCCCGGAGTCACCTAGTGCAG”: 8270 fluorescence intensity (a.u.); for “ACTTTCGATGTACGCTCTGATTGATATTTCTCCAATATCTCGGAGTCACCTAGTGCAG”: 8290 fluorescence intensity (a.u.).

For the sequence “TGGAGGAATTACCGGTCGTGTTTATATTTTCAAACTTTGACGGAGTCACCTAGTGCAG”, the binding signal is 10700 fluorescence intensity (a.u.). As for “AACCTACCCACGTGTTGGCAAAAGCTTTCTGCATTGTTATCGGAGTCACCTAGTGCAG”, the binding signal was 10500 fluorescence intensity (a.u.). In the case of “GGTACTGCGGTTTTCATTTCTCTTAAAGAATTTTCTGGTTCGGAGTCACCTAGTGCAG” it was 8120 fluorescence intensity (a.u.). The same measure for “CCACAAACTCTCTGCCACCGCTGTCTTCTTTCCGTCGACGCGGAGTCACCTAGTGCAG”: 11000 fluorescence intensity (a.u.); for “TCGGCATGATAGCATTGAGCAGCTTCTACTTCTGGGTCGGCGGAGTCACCTAGTGCAG”: 8040 fluorescence intensity (a.u.); for “CACCCAGCCGCGCCAGCCCACCTATTCGTTCGGCTTCTCCCGGAGTCACCTAGTGCAG”: 13200 fluorescence intensity (a.u.).

As to “GTAATTAAGTACGTATAGACTTTTCCATGTTTAGTTGTCGCGGAGTCACCTAGTGCAG”, the binding signal was 9080 fluorescence intensity (a.u.). In the case of “GCGCCGCCGCCGCCGCCCACAGCGCTTTGCTGCCGCCGTCCGGAGTCACCTAGTGCAG” it was 8720 fluorescence intensity (a.u.). The same measure for “CATCTTCAACTTTTGTCTACTCTTTCTCTCTTTAATCCTTCGGAGTCACCTAGTGCAG”: 11800 fluorescence intensity (a.u.); for “TCTGGCGAGTAGAGCAGGCGAGGGGAGGGGAGGGGATCCGCGGAGTCACCTAGTGCAG”: 10500 fluorescence intensity (a.u.).

Values taken from article PMC7819943, “Rice protein-binding microarrays: a tool to detect cis-acting elements near promoter regions in rice”.
